In article PMC10112930:
These are yes or no findings as the source states them, for the method shown. Binding seen in cells or lysates may run through a third protein. Here binding means that the protein was enriched with, or labelled near, the bait; the list need not be complete.

Molecular target: Armadillo-YFP (endogenously tagged Armadillo/β-Catenin, Armadillo-YFP[CPTI001198]) (Drosophila melanogaster (endogenous in embryos))
Experiment: affinity purification with mass spectrometry; anti-GFP co-immunoprecipitation (GFP-nanobody magnetic beads) from soluble cold lysates of 0-9 hpf embryos (before muscle formation), compared with wild-type lysates; 50 mM Tris pH 7.4, 150 mM KCl, 0.5 mM EDTA, 0.01% Triton X-100; 1.5 h at 4°C; LC-MS/MS, MaxQuant/Perseus

B1: α-Catenin (protein, UniProt P35220 1-917)
chain: MLKPDKMGTLTDFGQIALKWDPKNLEIRTMSVEKTLEPLVLQVTTLVNTKGPSKKKKGKSKRASALVAAVEKATENFIQKGEQIAYENPDITQEMLTAVDEVKKTGDAMSIAAREFSEDPCSSLKRGNMVRAARNLLSAVTRLLILADMVDVHLLLKSLHIVEDDLNKLKNASSQDELMDNMRQFGRNAGELIKQAAKRQQELKDPQLRDDLAAARAMLKKHSTMLLTASKVYVRHPELDLAKVNRDFILKQVCDAVNTISDVAQGKSSQPTDIYSGAGELAAALDDFDEGIVMDPMTYSEKRSRQLLEERLESIISAAALMADADCTRDERRERIVAECNAVRQALQDLLSEYMSNMSQKDNSPGLSRAIDQMCRKTRDLRRQLRKAVVDHVSDSFLETTTPLLDLIEAAKSGNEKKVREKSEIFTKHAEKLVEVANLVCSMSNNEDGVKMVRYAAAQIESLCPQVINAASILTVRPNSKVAQENMTTYRQAWEVQVRILTEAVDDITTIDDFLAVSENHILEDVNKCVMALQVGDARDLRATAGAIQGRSSRVCNVVEAEMDNYEPCIYTKRVLEAVKVLRDQVMMKFDQRVGAAVGALSNNSNKDVDENDFIDASRLVYDGVREIRRAVLMNRSSEDLDTDTEFEPVEDLTLETRSRSSAHTGDQTVDEYPDISGICTAREAMRKMTEEDKQKIAQQVELFRREKLTFDSEVAKWDDTGNDIIFLAKHMCMIMMEMTDFTRGRGPLKTTMDVINAAKKISEAGTKLDKLTREIAEQCPESSTKKDLLAYLQRIALYCHQIQITSKVKADVQNISGELIVSGLDSATSLIQAAKNLMNAVVLTVKYSYVASTKYTRQGTVSSPIVVWKMKAPEKKPLVRPEKPEEVRAKVRKGSQKKVQNPIHALSEFQSPADAV
binding: binds
